Some of the results follow.
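Also: competitive chemoproteomic profiling in live THP-1 cells with an iodoacetamide desthiobiotin (IA-DTB) probe, comparing probe-labelled peptide intensities in compound-treated cells against DMSO-treated controls.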

Protein sequences, listed by entry. Tags and fused reporters are not part of them. Lines headed by an entry give the natural chain unless they say otherwise; changes in a name come on top.
UniProt O95425, whole entry, looked up: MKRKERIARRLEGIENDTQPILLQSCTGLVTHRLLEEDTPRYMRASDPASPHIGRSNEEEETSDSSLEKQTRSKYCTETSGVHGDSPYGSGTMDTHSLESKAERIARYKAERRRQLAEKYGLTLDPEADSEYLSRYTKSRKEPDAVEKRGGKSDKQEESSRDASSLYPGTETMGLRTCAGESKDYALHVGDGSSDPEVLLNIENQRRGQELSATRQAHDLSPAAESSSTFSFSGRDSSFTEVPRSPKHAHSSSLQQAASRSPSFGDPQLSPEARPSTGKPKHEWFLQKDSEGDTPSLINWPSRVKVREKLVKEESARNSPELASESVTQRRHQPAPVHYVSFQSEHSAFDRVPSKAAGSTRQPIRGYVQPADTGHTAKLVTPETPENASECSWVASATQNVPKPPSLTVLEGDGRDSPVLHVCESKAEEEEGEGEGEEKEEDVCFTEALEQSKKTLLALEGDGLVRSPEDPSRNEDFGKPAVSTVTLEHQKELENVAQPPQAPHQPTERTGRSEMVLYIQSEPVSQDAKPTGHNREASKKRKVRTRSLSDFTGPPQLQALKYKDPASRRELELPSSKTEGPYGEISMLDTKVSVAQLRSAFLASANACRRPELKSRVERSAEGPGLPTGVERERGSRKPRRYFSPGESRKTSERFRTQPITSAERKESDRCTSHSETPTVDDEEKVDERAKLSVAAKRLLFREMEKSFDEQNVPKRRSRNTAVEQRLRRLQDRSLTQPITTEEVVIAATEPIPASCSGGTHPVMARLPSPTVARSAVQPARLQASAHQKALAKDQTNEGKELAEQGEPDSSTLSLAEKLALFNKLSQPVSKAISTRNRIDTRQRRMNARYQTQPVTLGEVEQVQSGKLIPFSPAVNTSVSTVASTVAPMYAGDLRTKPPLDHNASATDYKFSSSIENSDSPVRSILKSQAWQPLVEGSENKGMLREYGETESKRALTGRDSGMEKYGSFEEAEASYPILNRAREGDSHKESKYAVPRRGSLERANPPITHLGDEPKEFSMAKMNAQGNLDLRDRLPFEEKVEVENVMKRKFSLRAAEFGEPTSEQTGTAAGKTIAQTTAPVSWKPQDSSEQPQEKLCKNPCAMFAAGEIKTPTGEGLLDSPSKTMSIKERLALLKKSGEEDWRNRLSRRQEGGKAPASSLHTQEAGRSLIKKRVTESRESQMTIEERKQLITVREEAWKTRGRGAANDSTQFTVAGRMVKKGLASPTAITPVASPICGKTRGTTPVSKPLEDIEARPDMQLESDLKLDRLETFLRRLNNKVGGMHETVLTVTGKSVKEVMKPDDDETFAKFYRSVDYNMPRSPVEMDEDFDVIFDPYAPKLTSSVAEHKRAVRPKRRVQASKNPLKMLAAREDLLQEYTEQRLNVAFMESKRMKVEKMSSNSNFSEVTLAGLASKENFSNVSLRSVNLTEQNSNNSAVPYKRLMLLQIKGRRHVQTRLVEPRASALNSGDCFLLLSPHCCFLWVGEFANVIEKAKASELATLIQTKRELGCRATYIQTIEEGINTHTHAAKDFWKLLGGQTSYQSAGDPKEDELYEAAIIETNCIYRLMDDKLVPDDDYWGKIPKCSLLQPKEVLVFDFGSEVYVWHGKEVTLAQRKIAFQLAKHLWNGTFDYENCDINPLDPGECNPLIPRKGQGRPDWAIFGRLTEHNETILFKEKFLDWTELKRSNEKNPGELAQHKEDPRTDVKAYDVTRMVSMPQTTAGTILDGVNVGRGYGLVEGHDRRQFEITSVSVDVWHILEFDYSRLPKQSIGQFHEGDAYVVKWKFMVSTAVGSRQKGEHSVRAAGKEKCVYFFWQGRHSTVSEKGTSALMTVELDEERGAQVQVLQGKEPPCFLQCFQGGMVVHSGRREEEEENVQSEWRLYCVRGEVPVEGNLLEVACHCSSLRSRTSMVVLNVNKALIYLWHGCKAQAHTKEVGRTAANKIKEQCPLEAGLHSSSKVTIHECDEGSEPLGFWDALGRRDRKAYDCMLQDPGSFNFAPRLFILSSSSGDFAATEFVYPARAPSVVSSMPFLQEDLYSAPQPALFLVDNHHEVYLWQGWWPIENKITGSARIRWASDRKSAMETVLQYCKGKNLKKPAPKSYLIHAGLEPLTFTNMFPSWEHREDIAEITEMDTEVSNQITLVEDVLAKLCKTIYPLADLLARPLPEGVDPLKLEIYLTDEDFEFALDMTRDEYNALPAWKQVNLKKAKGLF
UniProt Q9Y3F4: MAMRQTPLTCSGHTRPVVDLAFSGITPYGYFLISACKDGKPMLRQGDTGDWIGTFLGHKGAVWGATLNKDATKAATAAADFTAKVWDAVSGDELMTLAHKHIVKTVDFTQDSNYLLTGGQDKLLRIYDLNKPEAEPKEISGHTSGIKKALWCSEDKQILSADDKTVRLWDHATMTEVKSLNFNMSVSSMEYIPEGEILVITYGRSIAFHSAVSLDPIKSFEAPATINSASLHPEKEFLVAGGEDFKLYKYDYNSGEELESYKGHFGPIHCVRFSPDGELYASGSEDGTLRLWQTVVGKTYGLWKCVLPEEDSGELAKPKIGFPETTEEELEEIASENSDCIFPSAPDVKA
UniProt Q9Y6E0: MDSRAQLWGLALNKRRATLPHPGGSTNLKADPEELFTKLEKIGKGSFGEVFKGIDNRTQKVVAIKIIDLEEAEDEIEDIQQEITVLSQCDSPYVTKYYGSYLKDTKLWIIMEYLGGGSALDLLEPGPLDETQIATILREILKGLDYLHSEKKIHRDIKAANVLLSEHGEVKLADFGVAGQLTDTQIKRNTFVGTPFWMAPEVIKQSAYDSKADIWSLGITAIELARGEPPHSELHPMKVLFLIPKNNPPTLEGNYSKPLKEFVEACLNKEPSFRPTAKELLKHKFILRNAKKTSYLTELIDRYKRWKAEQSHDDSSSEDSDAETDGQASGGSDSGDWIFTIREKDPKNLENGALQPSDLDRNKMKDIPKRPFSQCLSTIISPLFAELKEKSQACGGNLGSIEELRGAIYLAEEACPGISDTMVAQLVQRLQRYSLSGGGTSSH
UniProt Q9UNE7: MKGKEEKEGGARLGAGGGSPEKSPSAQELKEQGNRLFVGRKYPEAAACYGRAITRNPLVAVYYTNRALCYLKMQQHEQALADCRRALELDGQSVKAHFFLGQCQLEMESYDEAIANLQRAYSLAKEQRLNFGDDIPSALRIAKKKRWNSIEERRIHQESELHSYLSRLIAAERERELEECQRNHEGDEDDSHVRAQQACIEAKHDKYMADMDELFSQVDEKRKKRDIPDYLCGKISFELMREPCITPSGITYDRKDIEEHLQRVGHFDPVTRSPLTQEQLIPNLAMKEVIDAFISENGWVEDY
UniProt Q9Y5M8: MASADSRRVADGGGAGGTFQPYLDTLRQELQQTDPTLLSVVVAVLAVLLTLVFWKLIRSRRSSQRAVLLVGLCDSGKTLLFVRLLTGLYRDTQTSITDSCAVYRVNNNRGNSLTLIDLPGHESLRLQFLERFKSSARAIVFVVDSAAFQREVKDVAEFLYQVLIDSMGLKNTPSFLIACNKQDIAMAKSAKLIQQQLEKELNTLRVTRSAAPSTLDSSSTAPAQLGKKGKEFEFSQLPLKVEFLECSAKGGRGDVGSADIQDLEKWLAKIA
UniProt Q15833: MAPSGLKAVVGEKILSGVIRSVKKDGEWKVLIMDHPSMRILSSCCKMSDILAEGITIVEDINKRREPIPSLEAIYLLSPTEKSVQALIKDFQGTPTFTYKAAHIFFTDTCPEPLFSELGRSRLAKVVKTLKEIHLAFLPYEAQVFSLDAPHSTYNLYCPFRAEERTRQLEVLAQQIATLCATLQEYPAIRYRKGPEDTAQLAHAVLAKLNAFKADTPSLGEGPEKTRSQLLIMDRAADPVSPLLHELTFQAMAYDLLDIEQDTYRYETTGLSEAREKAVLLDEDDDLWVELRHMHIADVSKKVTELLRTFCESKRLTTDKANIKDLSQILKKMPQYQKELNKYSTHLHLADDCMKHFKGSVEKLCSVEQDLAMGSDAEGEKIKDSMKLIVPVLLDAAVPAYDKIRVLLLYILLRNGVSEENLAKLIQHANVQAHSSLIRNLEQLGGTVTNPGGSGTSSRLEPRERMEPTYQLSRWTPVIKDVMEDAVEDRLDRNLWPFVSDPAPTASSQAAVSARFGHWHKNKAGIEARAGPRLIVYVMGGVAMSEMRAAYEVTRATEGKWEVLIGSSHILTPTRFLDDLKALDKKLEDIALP
UniProt P31948, whole entry, looked up: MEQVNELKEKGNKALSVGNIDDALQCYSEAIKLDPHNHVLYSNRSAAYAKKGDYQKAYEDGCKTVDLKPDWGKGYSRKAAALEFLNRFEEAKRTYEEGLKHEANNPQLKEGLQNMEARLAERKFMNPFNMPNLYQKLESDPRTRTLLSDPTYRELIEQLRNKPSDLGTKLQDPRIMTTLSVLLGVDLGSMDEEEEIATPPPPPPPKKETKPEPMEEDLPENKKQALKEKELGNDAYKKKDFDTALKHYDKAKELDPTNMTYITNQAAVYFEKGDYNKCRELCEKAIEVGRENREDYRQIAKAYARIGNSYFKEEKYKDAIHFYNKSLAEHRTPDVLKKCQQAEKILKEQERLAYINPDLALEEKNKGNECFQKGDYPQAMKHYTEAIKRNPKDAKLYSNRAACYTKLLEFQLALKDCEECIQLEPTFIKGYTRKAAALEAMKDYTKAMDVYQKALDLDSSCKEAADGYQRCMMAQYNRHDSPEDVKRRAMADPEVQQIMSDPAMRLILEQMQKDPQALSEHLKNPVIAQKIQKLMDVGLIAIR
UniProt O94804: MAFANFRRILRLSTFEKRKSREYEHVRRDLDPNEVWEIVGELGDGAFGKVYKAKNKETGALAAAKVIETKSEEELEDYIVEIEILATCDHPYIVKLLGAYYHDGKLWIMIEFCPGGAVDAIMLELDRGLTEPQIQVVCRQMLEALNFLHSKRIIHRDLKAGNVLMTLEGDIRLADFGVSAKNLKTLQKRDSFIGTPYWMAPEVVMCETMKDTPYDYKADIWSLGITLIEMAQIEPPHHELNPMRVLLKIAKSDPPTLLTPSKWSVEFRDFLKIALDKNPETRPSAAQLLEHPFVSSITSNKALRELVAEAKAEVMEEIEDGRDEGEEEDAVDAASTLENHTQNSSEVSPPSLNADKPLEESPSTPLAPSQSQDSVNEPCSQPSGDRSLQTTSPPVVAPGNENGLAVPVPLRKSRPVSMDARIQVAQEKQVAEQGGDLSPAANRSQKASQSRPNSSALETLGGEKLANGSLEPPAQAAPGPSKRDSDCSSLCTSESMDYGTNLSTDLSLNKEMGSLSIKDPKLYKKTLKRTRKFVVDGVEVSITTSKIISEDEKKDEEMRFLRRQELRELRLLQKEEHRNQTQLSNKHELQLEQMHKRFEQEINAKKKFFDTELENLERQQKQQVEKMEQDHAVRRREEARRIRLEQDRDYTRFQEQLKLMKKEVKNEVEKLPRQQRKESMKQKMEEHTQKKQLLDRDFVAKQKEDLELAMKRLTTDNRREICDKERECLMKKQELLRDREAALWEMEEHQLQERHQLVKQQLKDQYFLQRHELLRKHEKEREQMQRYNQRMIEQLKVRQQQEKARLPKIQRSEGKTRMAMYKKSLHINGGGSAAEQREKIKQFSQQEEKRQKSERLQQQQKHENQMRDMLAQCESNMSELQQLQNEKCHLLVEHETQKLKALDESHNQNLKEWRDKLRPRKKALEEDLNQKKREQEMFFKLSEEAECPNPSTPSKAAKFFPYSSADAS
UniProt O95210: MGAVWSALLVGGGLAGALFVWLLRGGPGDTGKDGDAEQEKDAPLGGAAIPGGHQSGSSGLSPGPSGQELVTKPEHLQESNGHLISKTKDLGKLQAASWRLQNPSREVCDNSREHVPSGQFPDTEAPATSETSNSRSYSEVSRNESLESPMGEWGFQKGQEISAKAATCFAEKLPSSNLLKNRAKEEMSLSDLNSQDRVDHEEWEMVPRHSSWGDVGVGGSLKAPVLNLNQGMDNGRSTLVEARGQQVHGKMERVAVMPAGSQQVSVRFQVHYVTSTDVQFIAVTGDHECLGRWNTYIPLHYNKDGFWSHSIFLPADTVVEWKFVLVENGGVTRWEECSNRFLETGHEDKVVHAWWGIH
UniProt Q13242, whole entry, looked up: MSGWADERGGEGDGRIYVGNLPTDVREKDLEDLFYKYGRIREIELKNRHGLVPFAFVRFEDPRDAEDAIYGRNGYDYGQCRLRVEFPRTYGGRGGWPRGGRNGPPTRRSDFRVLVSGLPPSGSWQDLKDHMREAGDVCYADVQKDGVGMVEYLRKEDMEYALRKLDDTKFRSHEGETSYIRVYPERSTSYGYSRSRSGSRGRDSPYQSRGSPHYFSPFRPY
UniProt Q16629: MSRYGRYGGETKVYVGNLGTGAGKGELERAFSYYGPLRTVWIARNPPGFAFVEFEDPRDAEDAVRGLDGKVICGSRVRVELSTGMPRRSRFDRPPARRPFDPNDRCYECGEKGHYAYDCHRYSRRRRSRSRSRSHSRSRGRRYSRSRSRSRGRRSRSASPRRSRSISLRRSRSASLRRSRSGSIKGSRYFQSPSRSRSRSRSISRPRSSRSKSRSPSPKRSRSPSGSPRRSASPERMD

Compound in one assay: CC1Cc2ccccc2N1C(=O)C1CCCN(C1)C(=O)CCl (mixture of isomers) [TRIM25 ligand 11 (diastereomer mixture)]
The experiment in a line: probe-labelled cysteine peptide fold change vs DMSO (competition) (log2 fold change); higher = less target engagement (more negative = stronger competition). The note with it: 10 µM; THP-1; incubation time: 4 h.
For the target “STAT1_P42224_155_VMCIEHEIK (UniProt P42224)”, the “probe-labelled cysteine peptide fold change” value was -0.0877.

In the case of “SVIL_O95425_1903_GEVPVEGNLLEVACHCSSLR (UniProt O95425)”, the “probe-labelled cysteine peptide fold change” value was determined as 0.192.

As to “STRAP_Q9Y3F4_270_GHFGPIHCVR (UniProt Q9Y3F4)”, the “probe-labelled cysteine peptide fold change” value turned out to be 0.0731.

As to “STK24_Q9Y6E0_415_GAIYLAEEACPGISDTMVAQLVQR (UniProt Q9Y6E0)”, the “probe-labelled cysteine peptide fold change” value was found to be 0.113.

In the case of “STUB1_Q9UNE7_48_KYPEAAACYGR (UniProt Q9UNE7)”, the “probe-labelled cysteine peptide fold change” value was -0.0809.

Regarding “SRPRB_Q9Y5M8_100_DTQTSITDSCAVYR (UniProt Q9Y5M8)”, the “probe-labelled cysteine peptide fold change” value is 0.0527.

As to “STXBP2_Q15833_110_AAHIFFTDTCPEPLFSELGR (UniProt Q15833)”, the “probe-labelled cysteine peptide fold change” value was determined as 0.121.

On to “STAT1_P42224_492_NLSFFLTPPCAR (UniProt P42224)”, for which the “probe-labelled cysteine peptide fold change” value turned out to be 0.177.

As to “SVIL_O95425_671_CTSHSETPTVDDEEK (UniProt O95425)”, the “probe-labelled cysteine peptide fold change” value was 0.197.

For the target “STAT3_P40763_108_CLWEESR (UniProt P40763)”, the “probe-labelled cysteine peptide fold change” value is -0.0688.

As to “SUPV3L1_Q8IYB8_587_KQPFVCSSLLQFAR (UniProt Q8IYB8)”, the “probe-labelled cysteine peptide fold change” value is -0.0532.

On to “SSB_P05455_245_FSGDLDDQTCR (UniProt P05455)”, for which the “probe-labelled cysteine peptide fold change” value was determined as 0.115.

For “STIP1_P31948_471_CMMAQYNR (UniProt P31948)”, the “probe-labelled cysteine peptide fold change” value is -0.155.

For the target “STRN4_Q9NRL3_337_CTVDGSPHELESR (UniProt Q9NRL3)”, the “probe-labelled cysteine peptide fold change” value is -0.0727.

Take “SRRM2_Q9UQ35_1480_SECDSSPEPK (UniProt Q9UQ35)”: the “probe-labelled cysteine peptide fold change” value was -0.0751.

On to “SUPT5H_O00267_638_KLVENGGMFVCK (UniProt O00267)”, for which the “probe-labelled cysteine peptide fold change” value came to 0.00368.

Regarding “STT3A_P46977_637_EGSPVLLNCLMYK (UniProt P46977)”, the “probe-labelled cysteine peptide fold change” value was found to be 0.114.

As to “STK10_O94804_947_LSEEAECPNPSTPSK (UniProt O94804)”, the “probe-labelled cysteine peptide fold change” value was -0.0762.

Regarding “STBD1_O95210_108_EVCDNSR (UniProt O95210)”, the “probe-labelled cysteine peptide fold change” value was -0.164.

Regarding “STRN_O43815_316_EDQCLMPEAWNVDQGVITK (UniProt O43815)”, the “probe-labelled cysteine peptide fold change” value is -0.0944.

Take “SRSF9_Q13242_138_EAGDVCYADVQK (UniProt Q13242)”: the “probe-labelled cysteine peptide fold change” value is -0.133.

The assay is the same for the next values; noted with them: 50 µM; THP-1; incubation time: 4 h.
Take “SUZ12_Q15022_325_LQLLDGEYEVAMQEMEECPISK (UniProt Q15022)”: the “probe-labelled cysteine peptide fold change” value is -0.288.

With “SUN2_Q9UH99_601_VILQPDVHPGNCWAFQGPQGFAVVR (UniProt Q9UH99)”, the “probe-labelled cysteine peptide fold change” value was 0.174.

Consider “STAT2_P52630_174_DQQDVFCFR (UniProt P52630)”, for which the “probe-labelled cysteine peptide fold change” value was -0.00746.

For the target “SRRT_Q9BXP5_640_CGIIHVR (UniProt Q9BXP5)”, the “probe-labelled cysteine peptide fold change” value was determined as 0.144.

“STK38_Q15208_9_AMTGSTPCSSMSNHTK (UniProt Q15208)”: the “probe-labelled cysteine peptide fold change” value was -0.495.

Regarding “STIP1_P31948_417_DCEECIQLEPTFIK (UniProt P31948)”, the “probe-labelled cysteine peptide fold change” value was determined as 0.0682.

Regarding “SUPT6H_Q7KZ85_796_DHPVFCALVNGEGEVTDFLR (UniProt Q7KZ85)”, the “probe-labelled cysteine peptide fold change” value worked out at 0.207.

In the case of “SRPRA_P08240_424_QRPYVVTFCGVNGVGK (UniProt P08240)”, the “probe-labelled cysteine peptide fold change” value was 0.202.

Turning to “SUN1_O94901_403_QPLQGDSEAFPWHWMSGVEQQVASLSGQCHHHGENLR (UniProt O94901)”, the “probe-labelled cysteine peptide fold change” value stood at 0.0175.

Turning to “STBD1_O95210_337_WEECSNR (UniProt O95210)”, the “probe-labelled cysteine peptide fold change” value worked out at 0.0677.

On to “ST14_Q9Y5Y6_268_SFDLASCDER (UniProt Q9Y5Y6)”, for which the “probe-labelled cysteine peptide fold change” value worked out at 0.108.

With SRSF7_Q16629_73_VICGSR (UniProt Q16629), the “probe-labelled cysteine peptide fold change” value is -0.251.

With “SUZ12_Q15022_201_DVSCPIR (UniProt Q15022)”, the “probe-labelled cysteine peptide fold change” value was 0.0287.

For the target “STRADA_Q7RTN6_107_INLEACSNEMVTFLQGELHVSK (UniProt Q7RTN6)”, the “probe-labelled cysteine peptide fold change” value was 0.075.

On to “SSBP3_Q9BWW4_80_DTCEHSSEAK (UniProt Q9BWW4)”, for which the “probe-labelled cysteine peptide fold change” value is -0.432.

For “STK24_Q9Y6E0_375_RPFSQCLSTIISPLFAELK (UniProt Q9Y6E0)”, the “probe-labelled cysteine peptide fold change” value was -0.314.

Regarding “STAT1_P42224_155_VMCIEHEIK (UniProt P42224)”, the “probe-labelled cysteine peptide fold change” value is -0.0274.

As to “SVIL_O95425_1903_GEVPVEGNLLEVACHCSSLR (UniProt O95425)”, the “probe-labelled cysteine peptide fold change” value was found to be 0.286.

Take “STRAP_Q9Y3F4_270_GHFGPIHCVR (UniProt Q9Y3F4)”: the “probe-labelled cysteine peptide fold change” value stood at 0.0826.

For “STK24_Q9Y6E0_415_GAIYLAEEACPGISDTMVAQLVQR (UniProt Q9Y6E0)”, the “probe-labelled cysteine peptide fold change” value came out at 0.0625.

Regarding “STUB1_Q9UNE7_48_KYPEAAACYGR (UniProt Q9UNE7)”, the “probe-labelled cysteine peptide fold change” value was -0.103.

Take “SRPRB_Q9Y5M8_100_DTQTSITDSCAVYR (UniProt Q9Y5M8)”: the “probe-labelled cysteine peptide fold change” value is 0.136.

Take “STXBP2_Q15833_110_AAHIFFTDTCPEPLFSELGR (UniProt Q15833)”: the “probe-labelled cysteine peptide fold change” value is 0.0745.

For the target “STAT1_P42224_492_NLSFFLTPPCAR (UniProt P42224)”, the “probe-labelled cysteine peptide fold change” value was -0.0776.

“SVIL_O95425_671_CTSHSETPTVDDEEK (UniProt O95425)”: the “probe-labelled cysteine peptide fold change” value was determined as 0.0849.

Consider “STAT3_P40763_108_CLWEESR (UniProt P40763)”, for which the “probe-labelled cysteine peptide fold change” value turned out to be 0.128.

In the case of “SUPV3L1_Q8IYB8_587_KQPFVCSSLLQFAR (UniProt Q8IYB8)”, the “probe-labelled cysteine peptide fold change” value was -0.127.

Take “SSB_P05455_245_FSGDLDDQTCR (UniProt P05455)”: the “probe-labelled cysteine peptide fold change” value is 0.0442.

For the target “STIP1_P31948_471_CMMAQYNR (UniProt P31948)”, the “probe-labelled cysteine peptide fold change” value is -0.0349.

With “STRN4_Q9NRL3_337_CTVDGSPHELESR (UniProt Q9NRL3)”, the “probe-labelled cysteine peptide fold change” value is -0.206.

On to “SRRM2_Q9UQ35_1480_SECDSSPEPK (UniProt Q9UQ35)”, for which the “probe-labelled cysteine peptide fold change” value was -0.0785.

As to “SUPT5H_O00267_638_KLVENGGMFVCK (UniProt O00267)”, the “probe-labelled cysteine peptide fold change” value was 0.0985.

On to “STT3A_P46977_637_EGSPVLLNCLMYK (UniProt P46977)”, for which the “probe-labelled cysteine peptide fold change” value stood at 0.0604.

On to “STK10_O94804_947_LSEEAECPNPSTPSK (UniProt O94804)”, for which the “probe-labelled cysteine peptide fold change” value was -0.392.

Take “STBD1_O95210_108_EVCDNSR (UniProt O95210)”: the “probe-labelled cysteine peptide fold change” value is -0.159.

As to “STRN_O43815_316_EDQCLMPEAWNVDQGVITK (UniProt O43815)”, the “probe-labelled cysteine peptide fold change” value is -0.257.

Regarding “SRSF9_Q13242_138_EAGDVCYADVQK (UniProt Q13242)”, the “probe-labelled cysteine peptide fold change” value was -0.315.

For the origin of these results see the supplement of paper PMC12067093, “Discovery and optimisation of a covalent ligand for TRIM25 and its application to targeted protein ubiquitination” (Chemical Science, 2025).
